Reference: paper PMC4802042
Where a chain is given by its changes, count along the chain named. Names may count otherwise. No constants are given. Whether binding was seen depends on the method and setting. For some of these results: Binding calls can cover weak binding; strength is not graded here.

B1: MKP7 catalytic domain (MKP7-CD, residues 156-301) (domain or fragment, UniProt Q9BY84 156-301)
chain: NIGPTRILPNLYLGCQRDVLNKELMQQNGIGYVLNASNTCPKPDFIPESHFLRVPVNDSFCEKILPWLDKSVDFIEKAKASNGCVLVHCLAGISRSATIAIAYIMKRMDMSLDEAYRFVKEKRPTISPNFNFLGQLLDYEKKIKNQ
B2: MKP5 catalytic domain (MKP5-CD, residues 320-467) (domain or fragment, UniProt Q9Y6W6 320-467)
chain: AELTPILPFLFLGNEQDAQDLDTMQRLNIGYVINVTTHLPLYHYEKGLFNYKRLPATDSNKQNLRQYFEEAFEFIEEAHQCGKGLLIHCQAGVSRSATIVIAYLMKHTRMTMTDAYKFVKGKRPIISPNLNFMGQLLEFEEDLNNGVT
B3: MKP7 kinase-binding domain (MKP7-KBD, residues 5-138) (domain or fragment, UniProt Q9BY84 5-138)
chain: MIGTQIVTERLVALLESGTEKVLLIDSRPFVEYNTSHILEAININCSKLMKRRLQQDKVLITELIQHSAKHKVDIDCSQKVVVYDQSSQDVASLSSDCFLTVLLGKLEKSFNSVHLLAGGFAEFSRCFPGLCEG
B4: MKP7-CD (F285D) (domain or fragment, UniProt Q9BY84 156-301)
chain: B1 chain with F130D
B5: MKP5 kinase-binding domain (MKP5-KBD, residues 139-287) (domain or fragment, UniProt Q9Y6W6 139-287)
chain: GTPKQLASIKIIYPNDLAKKMTKCSKSHLPSQGPVIIDCRPFMEYNKSHIQGAVHINCADKISRRRLQQGKITVLDLISCREGKDSFKRIFSKEIIVYDENTNEPSRVMPSQPLHIVLESLKREGKEPLVLKGGLSSFKQNHENLCDNS

Legend:
[1] = target: JNK1 (unphosphorylated, full-length human JNK1) (human); assay: crystal structure; unphosphorylated JNK1 and MKP7-CD mixed 1:1; 2.4 Å; four complexes in the asymmetric unit; both purified
[2] = target: JNK1 (unphosphorylated, full-length human JNK1) (human); assay: SEC; Superdex-200 10/300, 10 mM HEPES pH 7.5, 150 mM NaCl, 2 mM dithiothreitol; 3 molar equivalents of the MKP domain mixed with 1 of JNK1; column calibrated with mass standards; fractions on SDS-PAGE, Coomassie; both purified
[3] = target: GST-JNK1 (wild type) (human); assay: pull-down; GST-JNK1 (0.5 ml, 6 uM) on GS4B resin, MKP domain (0.5 ml, 20 uM) flowed through, 4 °C, 25 mM Tris-HCl pH 8.0, 150 mM NaCl, 2 mM dithiothreitol; eluted with 10 mM reduced glutathione; SDS-PAGE, Coomassie; both purified
[4] = target: JNK1 (unphosphorylated, full-length human JNK1) (human); assay: condition: 3 molar equivalents of MKP7-CD (F285D) to 1 of JNK1; SEC; Superdex-200 10/300, 10 mM HEPES pH 7.5, 150 mM NaCl, 2 mM dithiothreitol; 3 molar equivalents of the MKP domain mixed with 1 of JNK1; column calibrated with mass standards; fractions on SDS-PAGE, Coomassie; both purified

Row | Binder | binding [1] | binding [2] | binding [3] | binding [4]
1 | B1 | binds | binds | binds | 
2 | B2 |  | binds | binds | 
3 | B3 |  | no binding (tested: 3 molar equivalents of KBD to 1 of JNK1) | no binding | 
4 | B4 |  |  |  | no binding
5 | B5 |  | no binding | no binding | 
